At least one structure is not confirmed: it was looked up by name or label, or the drawing left a doubt.
Key:
platelet aggregation = conditions: cited from earlier work
blood clots = test: thrombolytic activity of the single agents, inventor's private research study; assay type: in vivo; conditions: single agent
From the text: However, both agents can be dissolved in stomach acids, rendering certain dosage forms nearly useless as thrombolytic agents. This may explain why the potency of previous oral thrombolytics is decreased in comparison to injected thrombolytic agents. Enteric coatings reduce the active ingredients' rate of digestion in stomach acids, leading to enhanced efficacy of the active ingredient(s).

C[C@@H]1O[C@@H](OC[C@H]2O[C@@H](Oc3c(-c4ccc(O)c(O)c4)oc4cc(O)cc(O)c4c3=O)[C@H](O)[C@@H](O)[C@@H]2O)[C@H](O)[C@H](O)[C@H]1O [rutin, quercetin-3-O-rutinoside]
platelet aggregation (platelet aggregation): inhibits platelet aggregation
thrombolytic activity (blood clots): demonstrated thrombolytic activity

Source: patent US20200254071A1, “COMPOSITIONS AND METHODS FOR THROMBOEMBOLISM DISSOLUTION” (priority 2016, published 2020)
